Taken from: PubChem BioAssay AID1508597 (Cure First, 2020)

Assay: 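Knock-downs altering ovarian cancer cell survival with or without PARP inhibitor rucaparib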 (primary screen)
Cells: human ovarian carcinoma lines grown from tumours: OCI-P5x (papillary serous) and OCI-C5x (clear cell)
Reagents: siRNA pool against human genes, 1.25 pmol siRNA per well
Duration: 72 h or 96 h, depending on the cell culture
Challenge: rucaparib 20 µM (about IC30) or vehicle, present until read-out
Rucaparib or vehicle: Rucaparib
Cell line: OCI-C5x (clear cell)
Detection: 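Luminescent ATP-based viability assay read 72 or 96 h after transfection, depending on culture, given as normalised percent viability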
Scale: viability, normalised: higher = more viable cells remaining
Active means: 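a well counts as a hit if its normalised viability is under 80 percent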
Calls: active = viability under 80%; inactive = viability 80% or more
This is an unselected part of the about 2,100 reagents, under one of the conditions tested. 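Calls flag viability under 80% in either arm, not effects specific to rucaparib; the reference for percent is not stated.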 Entries without a mark were called inactive. Some reagents were tested in more than one well and are listed for each. Not given: the 100% reference.

| gene | technical replicate | viability, normalised (%) |
| --- | --- | --- |
| PDE4A (phosphodiesterase 4A) | 1 | 52.4 (active) |
| PDE4A (phosphodiesterase 4A) | 2 | 42 (active) |
| PDE4A (phosphodiesterase 4A) | 3 | 38.3 (active) |
| HFM1 (helicase for meiosis 1) | 1 | 61.9 (active) |
| HFM1 (helicase for meiosis 1) | 2 | 37.7 (active) |
| HFM1 (helicase for meiosis 1) | 3 | 58.7 (active) |
| KMT2E (lysine methyltransferase 2E (inactive)) | 1 | 50.8 (active) |
| KMT2E (lysine methyltransferase 2E (inactive)) | 2 | 45.5 (active) |
| KMT2E (lysine methyltransferase 2E (inactive)) | 3 | 37.8 (active) |
| SGK3 (serum/glucocorticoid regulated kinase family member 3) | 1 | 46.7 (active) |
| SGK3 (serum/glucocorticoid regulated kinase family member 3) | 2 | 59.6 (active) |
| SGK3 (serum/glucocorticoid regulated kinase family member 3) | 3 | 69.5 (active) |
| WDR45B (WD repeat domain 45B) | 1 | 63.3 (active) |
| WDR45B (WD repeat domain 45B) | 2 | 76.3 (active) |
| WDR45B (WD repeat domain 45B) | 3 | 46.7 (active) |
| RMI1 (RecQ mediated genome instability 1) | 1 | 67.3 (active) |
| RMI1 (RecQ mediated genome instability 1) | 2 | 59.5 (active) |
| RMI1 (RecQ mediated genome instability 1) | 3 | 63.8 (active) |
| PELP1 (proline, glutamate and leucine rich protein 1) | 1 | 32.3 (active) |
| PELP1 (proline, glutamate and leucine rich protein 1) | 2 | 54 (active) |
| PELP1 (proline, glutamate and leucine rich protein 1) | 3 | 50 (active) |
| EYA1 (EYA transcriptional coactivator and phosphatase 1) | 1 | 43.6 (active) |
| EYA1 (EYA transcriptional coactivator and phosphatase 1) | 2 | 42.3 (active) |
| EYA1 (EYA transcriptional coactivator and phosphatase 1) | 3 | 35.3 (active) |
| PAK5 (p21 (RAC1) activated kinase 5) | 1 | 33.1 (active) |
| PAK5 (p21 (RAC1) activated kinase 5) | 2 | 41.1 (active) |
| PAK5 (p21 (RAC1) activated kinase 5) | 3 | 35.7 (active) |
| CHD7 (chromodomain helicase DNA binding protein 7) | 1 | 60.6 (active) |
| CHD7 (chromodomain helicase DNA binding protein 7) | 2 | 41.8 (active) |
| CHD7 (chromodomain helicase DNA binding protein 7) | 3 | 33.3 (active) |
| EEF1E1 (eukaryotic translation elongation factor 1 epsilon 1) | 1 | 66.7 (active) |
| EEF1E1 (eukaryotic translation elongation factor 1 epsilon 1) | 2 | 51.2 (active) |
| EEF1E1 (eukaryotic translation elongation factor 1 epsilon 1) | 3 | 53.7 (active) |
| L3MBTL3 (L3MBTL histone methyl-lysine binding protein 3) | 1 | 46.6 (active) |
| L3MBTL3 (L3MBTL histone methyl-lysine binding protein 3) | 2 | 42 (active) |
| L3MBTL3 (L3MBTL histone methyl-lysine binding protein 3) | 3 | 47.5 (active) |
| HNRNPAB (heterogeneous nuclear ribonucleoprotein A/B) | 1 | 55.5 (active) |
| HNRNPAB (heterogeneous nuclear ribonucleoprotein A/B) | 2 | 43.2 (active) |
| HNRNPAB (heterogeneous nuclear ribonucleoprotein A/B) | 3 | 53 (active) |
| TGFB2 (transforming growth factor beta 2) | 1 | 58 (active) |
| TGFB2 (transforming growth factor beta 2) | 1 | 37 (active) |
| TGFB2 (transforming growth factor beta 2) | 2 | 37.7 (active) |
| TGFB2 (transforming growth factor beta 2) | 2 | 65 (active) |
| TGFB2 (transforming growth factor beta 2) | 3 | 61.2 (active) |
| TGFB2 (transforming growth factor beta 2) | 3 | 41.7 (active) |
| DEAF1 (DEAF1 transcription factor) | 1 | 54.1 (active) |
| DEAF1 (DEAF1 transcription factor) | 2 | 41.3 (active) |
| DEAF1 (DEAF1 transcription factor) | 3 | 48.7 (active) |
| KDM8 (lysine demethylase 8 (putative)) | 1 | 47.8 (active) |
| KDM8 (lysine demethylase 8 (putative)) | 2 | 31 (active) |
| KDM8 (lysine demethylase 8 (putative)) | 3 | 42.8 (active) |
| DHX35 (DEAH-box helicase 35) | 1 | 66.7 (active) |
| DHX35 (DEAH-box helicase 35) | 2 | 55.7 (active) |
| DHX35 (DEAH-box helicase 35) | 3 | 65.9 (active) |
| KLF6 (KLF transcription factor 6) | 1 | 56.7 (active) |
| KLF6 (KLF transcription factor 6) | 2 | 46.7 (active) |
| KLF6 (KLF transcription factor 6) | 3 | 40.7 (active) |
| SETD4 (SET domain containing 4) | 1 | 69.2 (active) |
| SETD4 (SET domain containing 4) | 2 | 70 (active) |
| SETD4 (SET domain containing 4) | 3 | 69.6 (active) |
| RIPK1 (receptor interacting serine/threonine kinase 1) | 1 | 50.3 (active) |
| RIPK1 (receptor interacting serine/threonine kinase 1) | 2 | 41.6 (active) |
| RIPK1 (receptor interacting serine/threonine kinase 1) | 3 | 55.2 (active) |
| HPS1 (HPS1 biogenesis of lysosomal organelles complex 3 subunit 1) | 1 | 57.5 (active) |
| HPS1 (HPS1 biogenesis of lysosomal organelles complex 3 subunit 1) | 2 | 64.1 (active) |
| HPS1 (HPS1 biogenesis of lysosomal organelles complex 3 subunit 1) | 3 | 73.2 (active) |
| SMARCD2 (SWI/SNF related BAF chromatin remodeling complex subunit D2) | 1 | 31.7 (active) |
| SMARCD2 (SWI/SNF related BAF chromatin remodeling complex subunit D2) | 2 | 32.2 (active) |
| SMARCD2 (SWI/SNF related BAF chromatin remodeling complex subunit D2) | 3 | 29 (active) |
| USP1 (ubiquitin specific peptidase 1) | 1 | 42 (active) |
| USP1 (ubiquitin specific peptidase 1) | 2 | 47.5 (active) |
| USP1 (ubiquitin specific peptidase 1) | 3 | 43.8 (active) |
| HAT1 (histone acetyltransferase 1) | 1 | 67.7 (active) |
| HAT1 (histone acetyltransferase 1) | 2 | 59.9 (active) |
| HAT1 (histone acetyltransferase 1) | 3 | 56.9 (active) |

Copied from the list:
Value of SMARCD2 (SWI/SNF related BAF chromatin remodeling complex subunit D2), technical replicate 1 under “viability, normalised (%)”: 31.7 (active)
RIPK1 (receptor interacting serine/threonine kinase 1), technical replicate 1, viability, normalised (%) → 50.3 (active)
For “viability, normalised (%)”, KLF6 (KLF transcription factor 6), technical replicate 2 is entered as 46.7 (active)
For “viability, normalised (%)”, SMARCD2 (SWI/SNF related BAF chromatin remodeling complex subunit D2), technical replicate 3 has 29 (active)
Result for SGK3 (serum/glucocorticoid regulated kinase family member 3), technical replicate 2 in “viability, normalised (%)”: 59.6 (active)
WDR45B (WD repeat domain 45B), technical replicate 1, viability, normalised (%) = 63.3 (active)
